{"source": "paper PMC10651131", "molecules": {"B1": {"name": "megakaryoblastic leukemia 1 (MKL1), fused to the S10 or S11 GFP fragment (protein, UniProt Q8K4J6 1-964)", "chain": "MTLLEPEMLMMAVQSVLQLKLQQRRTREELVSQGIMPPLKSPAAFHEQRRSLERARTEDYLKRKIRSRPERAELVRMHILEETSAEPSLQAKQLKLKRARLADDLNEKIAQRPGPMELVEKNILPVESSLKEAIIVGQVNYPKVADSSSFDEDSSDALSPEQPASHESQGSVPSPLESRVSDPLPSATSISPTQVLSQLPMAPDPGETLFLAEQPPLPPAPLLPPSLANGSIVPTAKPAPTLIKQSQPKSASEKSQRSKKAKELKPKVKKLKYHQYIPPDQKQDKGAPAMDSSYAKILQQQQLFLQLQILNQQQQQQQQQHYNYQAILPAPPKPSAETPGSSAPTPSRSLSTSSSPSSGTPGPSGLARQSSTALAAKPGALPANLDDMKVAELKQELKLRSLPVSGTKTELIERLRAYQDQVSPAPGAPKAPATTSVLSKAGEVVVAFPAALLSTGSALVTAGLAPAEMVVATVTSNGMVKFGSTGSTPPVSPTPSERSLLSTGDENSTPGDAFGEMVTSPLTQLTLQASPLQIVKEEGARAASCCLSPGARAELEGLDKDQMLQEKDKQIEELTRMLQQKQQLVELLRLQLEQQKRAQQPAPASSPVKRESGFSSCQLSCQPQGSAHAFGSGLVVPTTNHGDTQAPAPESPPVVVKQEAGPPEPDLAPSSQLLLGSQGTSFLKRVSPPTLVTDSTGTHLILTVTNKSADGPGLPAGSPQQPLSQPGSPAPGPPAQMDLEHPPQPPFATPTSLLKKEPPGYEETVTQQPKQQENGSSSQHMDDLFDILIQSGEISADFKEPPSLPGKEKSPPAAAAYGPPLTPQPSPLSELPQAAPPPGSPTLPGRLEDFLESSTGLPLLTSGHEGPEPLSLIDDLHSQMLSSSAILDHPPSPMDTSELHFAPEPSSGMGLDLAVGHLDSMDWLELSSGGPVLSLAPLSTAAPSLFSMDFLDGHDLQLHWDSCL"}}, "test_in_all_cases": "split reporter; trimolecular fluorescence complementation (TriFC): GFP (S1 to S9) fragment coexpressed with proteins fused to the S10 or S11 GFP fragments in HEK293T cells, epifluorescence 8 hours after transfection; in some panels an untagged third protein coexpressed", "key": {"[1]": {"molecular_target": "T1, serum response factor (SRF), fused to the S10 or S11 GFP fragment (UniProt Q9JM73)", "T1 sequence": "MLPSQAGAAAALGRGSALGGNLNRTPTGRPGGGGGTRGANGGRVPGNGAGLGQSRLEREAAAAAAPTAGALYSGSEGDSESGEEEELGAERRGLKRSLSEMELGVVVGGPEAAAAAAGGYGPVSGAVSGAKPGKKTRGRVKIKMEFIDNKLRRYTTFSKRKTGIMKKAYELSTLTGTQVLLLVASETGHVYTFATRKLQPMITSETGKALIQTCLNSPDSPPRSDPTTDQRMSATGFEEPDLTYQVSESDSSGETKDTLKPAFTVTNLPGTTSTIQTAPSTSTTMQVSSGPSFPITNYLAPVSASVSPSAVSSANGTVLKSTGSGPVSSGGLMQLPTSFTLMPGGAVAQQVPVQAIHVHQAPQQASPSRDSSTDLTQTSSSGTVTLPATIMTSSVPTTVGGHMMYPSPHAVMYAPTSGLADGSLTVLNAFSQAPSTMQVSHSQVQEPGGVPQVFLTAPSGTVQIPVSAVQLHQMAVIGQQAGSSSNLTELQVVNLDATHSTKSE"}, "[2]": {"molecular_target": "T2, megakaryoblastic leukemia 1 (MKL1), fused to the S10 or S11 GFP fragment (UniProt Q8K4J6)", "T2 sequence": "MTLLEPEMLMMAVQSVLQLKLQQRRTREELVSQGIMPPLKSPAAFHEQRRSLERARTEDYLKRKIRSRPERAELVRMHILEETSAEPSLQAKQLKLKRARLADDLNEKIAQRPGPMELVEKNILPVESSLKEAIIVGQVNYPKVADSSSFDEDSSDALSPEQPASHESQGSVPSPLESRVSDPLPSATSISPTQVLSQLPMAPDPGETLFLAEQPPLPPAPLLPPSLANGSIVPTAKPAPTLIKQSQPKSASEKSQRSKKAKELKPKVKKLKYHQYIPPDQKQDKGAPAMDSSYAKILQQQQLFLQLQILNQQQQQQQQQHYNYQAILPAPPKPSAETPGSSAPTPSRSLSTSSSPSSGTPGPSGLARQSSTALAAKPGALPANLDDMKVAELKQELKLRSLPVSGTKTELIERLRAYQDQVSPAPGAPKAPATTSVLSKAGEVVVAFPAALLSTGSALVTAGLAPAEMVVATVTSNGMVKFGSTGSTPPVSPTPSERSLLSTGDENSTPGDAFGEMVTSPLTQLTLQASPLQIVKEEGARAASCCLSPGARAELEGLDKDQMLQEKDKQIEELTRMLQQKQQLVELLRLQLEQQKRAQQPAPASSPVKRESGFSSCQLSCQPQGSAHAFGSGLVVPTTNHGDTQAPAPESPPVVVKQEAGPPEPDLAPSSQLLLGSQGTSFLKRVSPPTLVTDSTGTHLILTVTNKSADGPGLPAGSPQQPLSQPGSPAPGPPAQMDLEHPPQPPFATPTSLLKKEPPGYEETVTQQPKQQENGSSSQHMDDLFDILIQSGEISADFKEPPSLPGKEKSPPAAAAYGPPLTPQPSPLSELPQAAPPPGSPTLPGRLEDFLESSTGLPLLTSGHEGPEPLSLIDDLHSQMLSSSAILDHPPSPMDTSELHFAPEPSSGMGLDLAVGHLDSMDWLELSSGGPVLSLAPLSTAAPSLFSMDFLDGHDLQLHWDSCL"}, "[3]": {"molecular_target": "DNA binding domain of SRF, TriFC fusion"}}, "note": "These are yes or no findings as the source states them, for the method shown. Binding seen in cells or lysates may run through a third protein. For part of these data: Binding can be weak; no strength is given. Sequences can lack the tags named with a protein.", "data": [{"molecule": "Zn-Finger domain of Bcl6, TriFC fusion (domain or fragment)", "values": [{"measurement": "binding", "setting": "[1]", "value": "no binding"}]}, {"molecule": "TAD domain of SRF, TriFC fusion (domain or fragment)", "values": [{"measurement": "binding", "setting": "[2]", "value": "no binding"}]}, {"molecule": "B1", "values": [{"measurement": "binding", "setting": "[3]", "value": "binds"}]}]}
